Experimental data as given in the supplement of paper PMC12067093, “Discovery and optimisation of a covalent ligand for TRIM25 and its application to targeted protein ubiquitination” (Chemical Science, 2025).
This is one part of the list.

The chains behind the UniProt entries cited, without tags or fusion partners. Where a name states a change or a piece, a line headed by the entry shows the natural chain unless it says otherwise.
UniProt Q86WV6: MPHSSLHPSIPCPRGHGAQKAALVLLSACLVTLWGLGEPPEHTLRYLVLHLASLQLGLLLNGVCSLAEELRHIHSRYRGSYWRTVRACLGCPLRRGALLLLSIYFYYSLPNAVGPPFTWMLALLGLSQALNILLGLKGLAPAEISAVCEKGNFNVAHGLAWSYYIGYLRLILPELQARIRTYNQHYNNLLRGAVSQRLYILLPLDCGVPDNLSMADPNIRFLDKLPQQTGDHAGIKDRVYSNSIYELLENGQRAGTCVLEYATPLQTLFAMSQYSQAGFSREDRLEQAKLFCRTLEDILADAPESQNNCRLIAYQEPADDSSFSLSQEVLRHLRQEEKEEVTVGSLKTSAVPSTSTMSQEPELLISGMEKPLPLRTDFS
UniProt Q9Y4G6: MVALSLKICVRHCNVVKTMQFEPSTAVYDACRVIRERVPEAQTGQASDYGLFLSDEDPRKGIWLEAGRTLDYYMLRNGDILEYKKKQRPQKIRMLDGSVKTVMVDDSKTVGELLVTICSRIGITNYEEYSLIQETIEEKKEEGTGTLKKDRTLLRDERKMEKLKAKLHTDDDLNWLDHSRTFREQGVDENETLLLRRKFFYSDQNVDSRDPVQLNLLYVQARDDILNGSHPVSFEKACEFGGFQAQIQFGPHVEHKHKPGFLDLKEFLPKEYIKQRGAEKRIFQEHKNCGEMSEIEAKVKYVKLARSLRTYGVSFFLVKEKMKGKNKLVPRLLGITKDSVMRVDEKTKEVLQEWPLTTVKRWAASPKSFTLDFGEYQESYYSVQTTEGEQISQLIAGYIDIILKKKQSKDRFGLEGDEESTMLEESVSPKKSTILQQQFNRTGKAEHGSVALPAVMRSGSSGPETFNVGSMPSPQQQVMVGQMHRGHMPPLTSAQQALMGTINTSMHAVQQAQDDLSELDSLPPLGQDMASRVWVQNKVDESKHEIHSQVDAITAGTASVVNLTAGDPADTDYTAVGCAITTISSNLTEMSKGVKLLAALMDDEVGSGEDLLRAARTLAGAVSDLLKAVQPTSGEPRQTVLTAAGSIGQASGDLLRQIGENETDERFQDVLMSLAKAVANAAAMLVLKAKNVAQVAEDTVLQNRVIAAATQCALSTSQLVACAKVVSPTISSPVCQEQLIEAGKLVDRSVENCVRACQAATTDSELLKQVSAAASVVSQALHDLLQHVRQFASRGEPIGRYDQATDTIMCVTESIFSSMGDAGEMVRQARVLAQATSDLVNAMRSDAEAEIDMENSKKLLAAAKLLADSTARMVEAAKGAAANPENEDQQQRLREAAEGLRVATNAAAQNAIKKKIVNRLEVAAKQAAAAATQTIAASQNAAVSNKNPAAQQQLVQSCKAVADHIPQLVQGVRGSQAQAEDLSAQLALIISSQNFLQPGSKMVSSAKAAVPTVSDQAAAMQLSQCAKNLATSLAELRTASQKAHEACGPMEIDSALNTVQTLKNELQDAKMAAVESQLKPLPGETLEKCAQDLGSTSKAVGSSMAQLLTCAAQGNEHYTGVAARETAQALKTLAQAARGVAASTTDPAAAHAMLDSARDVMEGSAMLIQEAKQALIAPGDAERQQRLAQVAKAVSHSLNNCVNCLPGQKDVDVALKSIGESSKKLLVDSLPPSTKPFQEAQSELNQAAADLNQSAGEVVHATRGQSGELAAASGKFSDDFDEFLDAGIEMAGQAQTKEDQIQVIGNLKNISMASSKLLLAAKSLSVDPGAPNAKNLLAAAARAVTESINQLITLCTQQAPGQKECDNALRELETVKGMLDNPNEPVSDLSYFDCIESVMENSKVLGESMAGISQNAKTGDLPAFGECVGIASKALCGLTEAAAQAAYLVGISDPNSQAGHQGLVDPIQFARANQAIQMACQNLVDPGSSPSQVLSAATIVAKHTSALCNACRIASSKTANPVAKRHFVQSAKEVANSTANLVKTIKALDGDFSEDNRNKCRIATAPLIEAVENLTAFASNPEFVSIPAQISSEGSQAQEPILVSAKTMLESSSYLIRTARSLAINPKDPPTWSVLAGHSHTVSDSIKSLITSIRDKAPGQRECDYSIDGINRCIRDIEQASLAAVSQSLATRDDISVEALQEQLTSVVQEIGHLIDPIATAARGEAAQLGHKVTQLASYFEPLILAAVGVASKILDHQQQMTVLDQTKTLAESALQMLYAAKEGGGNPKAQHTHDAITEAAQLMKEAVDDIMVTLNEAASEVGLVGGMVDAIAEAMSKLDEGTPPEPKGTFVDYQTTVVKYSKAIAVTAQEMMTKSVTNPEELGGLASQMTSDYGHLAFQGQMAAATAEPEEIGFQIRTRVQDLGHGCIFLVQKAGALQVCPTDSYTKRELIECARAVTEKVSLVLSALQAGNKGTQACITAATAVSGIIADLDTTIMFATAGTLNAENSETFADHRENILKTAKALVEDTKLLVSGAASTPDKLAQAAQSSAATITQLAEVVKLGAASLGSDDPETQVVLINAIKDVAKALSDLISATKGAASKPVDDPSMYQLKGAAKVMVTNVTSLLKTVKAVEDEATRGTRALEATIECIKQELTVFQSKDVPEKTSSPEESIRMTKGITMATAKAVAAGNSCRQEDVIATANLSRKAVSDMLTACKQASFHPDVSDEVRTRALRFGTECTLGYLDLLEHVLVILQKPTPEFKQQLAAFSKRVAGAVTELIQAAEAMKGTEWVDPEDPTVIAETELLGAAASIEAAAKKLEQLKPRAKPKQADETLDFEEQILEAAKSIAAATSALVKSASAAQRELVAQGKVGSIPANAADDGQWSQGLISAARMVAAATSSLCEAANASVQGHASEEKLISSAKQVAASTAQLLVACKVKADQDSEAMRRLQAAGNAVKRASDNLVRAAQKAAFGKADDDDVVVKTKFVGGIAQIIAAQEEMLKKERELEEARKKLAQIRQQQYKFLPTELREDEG
UniProt Q9H3N1: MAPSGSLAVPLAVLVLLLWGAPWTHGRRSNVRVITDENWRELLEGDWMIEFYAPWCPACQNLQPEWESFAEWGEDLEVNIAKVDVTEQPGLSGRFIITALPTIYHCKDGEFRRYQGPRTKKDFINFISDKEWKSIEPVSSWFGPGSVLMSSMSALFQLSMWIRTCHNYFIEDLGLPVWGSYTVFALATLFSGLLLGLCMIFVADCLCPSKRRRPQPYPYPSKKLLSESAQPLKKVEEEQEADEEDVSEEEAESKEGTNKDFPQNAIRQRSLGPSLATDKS
UniProt Q68CZ2: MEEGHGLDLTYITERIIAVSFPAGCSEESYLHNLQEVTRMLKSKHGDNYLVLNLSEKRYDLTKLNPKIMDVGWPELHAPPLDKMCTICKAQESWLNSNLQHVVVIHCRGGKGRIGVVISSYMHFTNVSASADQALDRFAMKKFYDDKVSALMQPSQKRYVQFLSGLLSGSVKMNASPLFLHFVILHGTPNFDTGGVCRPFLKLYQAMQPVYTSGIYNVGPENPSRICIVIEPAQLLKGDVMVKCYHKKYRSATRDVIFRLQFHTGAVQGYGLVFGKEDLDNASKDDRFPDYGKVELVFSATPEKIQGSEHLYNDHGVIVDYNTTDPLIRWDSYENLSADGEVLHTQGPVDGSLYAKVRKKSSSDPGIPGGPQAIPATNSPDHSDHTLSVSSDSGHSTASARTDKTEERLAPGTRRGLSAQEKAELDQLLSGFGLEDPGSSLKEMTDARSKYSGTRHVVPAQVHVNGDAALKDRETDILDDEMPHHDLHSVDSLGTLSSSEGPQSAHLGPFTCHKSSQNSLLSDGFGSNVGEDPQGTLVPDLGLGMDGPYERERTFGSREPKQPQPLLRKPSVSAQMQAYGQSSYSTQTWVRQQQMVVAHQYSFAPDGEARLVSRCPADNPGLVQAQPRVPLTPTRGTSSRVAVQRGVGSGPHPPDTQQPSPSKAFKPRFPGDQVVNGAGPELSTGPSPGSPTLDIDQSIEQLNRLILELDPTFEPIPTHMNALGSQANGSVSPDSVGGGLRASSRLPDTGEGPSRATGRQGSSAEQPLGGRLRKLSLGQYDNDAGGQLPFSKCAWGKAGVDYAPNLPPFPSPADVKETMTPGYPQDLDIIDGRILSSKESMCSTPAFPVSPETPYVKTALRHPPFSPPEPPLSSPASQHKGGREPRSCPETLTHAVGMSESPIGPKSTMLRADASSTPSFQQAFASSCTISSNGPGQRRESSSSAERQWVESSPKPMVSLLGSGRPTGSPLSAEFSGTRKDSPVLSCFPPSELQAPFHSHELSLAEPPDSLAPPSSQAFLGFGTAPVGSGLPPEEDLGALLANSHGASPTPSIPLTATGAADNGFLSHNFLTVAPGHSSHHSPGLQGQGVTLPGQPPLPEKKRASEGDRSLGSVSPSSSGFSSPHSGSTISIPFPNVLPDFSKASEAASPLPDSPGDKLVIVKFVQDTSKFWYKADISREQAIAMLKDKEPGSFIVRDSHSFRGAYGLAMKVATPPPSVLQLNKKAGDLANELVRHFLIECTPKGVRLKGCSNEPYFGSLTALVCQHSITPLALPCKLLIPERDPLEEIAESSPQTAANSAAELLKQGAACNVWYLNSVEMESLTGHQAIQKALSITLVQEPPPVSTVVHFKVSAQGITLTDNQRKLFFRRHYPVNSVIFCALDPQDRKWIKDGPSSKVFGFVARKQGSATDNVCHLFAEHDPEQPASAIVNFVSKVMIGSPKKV
UniProt Q9NS56: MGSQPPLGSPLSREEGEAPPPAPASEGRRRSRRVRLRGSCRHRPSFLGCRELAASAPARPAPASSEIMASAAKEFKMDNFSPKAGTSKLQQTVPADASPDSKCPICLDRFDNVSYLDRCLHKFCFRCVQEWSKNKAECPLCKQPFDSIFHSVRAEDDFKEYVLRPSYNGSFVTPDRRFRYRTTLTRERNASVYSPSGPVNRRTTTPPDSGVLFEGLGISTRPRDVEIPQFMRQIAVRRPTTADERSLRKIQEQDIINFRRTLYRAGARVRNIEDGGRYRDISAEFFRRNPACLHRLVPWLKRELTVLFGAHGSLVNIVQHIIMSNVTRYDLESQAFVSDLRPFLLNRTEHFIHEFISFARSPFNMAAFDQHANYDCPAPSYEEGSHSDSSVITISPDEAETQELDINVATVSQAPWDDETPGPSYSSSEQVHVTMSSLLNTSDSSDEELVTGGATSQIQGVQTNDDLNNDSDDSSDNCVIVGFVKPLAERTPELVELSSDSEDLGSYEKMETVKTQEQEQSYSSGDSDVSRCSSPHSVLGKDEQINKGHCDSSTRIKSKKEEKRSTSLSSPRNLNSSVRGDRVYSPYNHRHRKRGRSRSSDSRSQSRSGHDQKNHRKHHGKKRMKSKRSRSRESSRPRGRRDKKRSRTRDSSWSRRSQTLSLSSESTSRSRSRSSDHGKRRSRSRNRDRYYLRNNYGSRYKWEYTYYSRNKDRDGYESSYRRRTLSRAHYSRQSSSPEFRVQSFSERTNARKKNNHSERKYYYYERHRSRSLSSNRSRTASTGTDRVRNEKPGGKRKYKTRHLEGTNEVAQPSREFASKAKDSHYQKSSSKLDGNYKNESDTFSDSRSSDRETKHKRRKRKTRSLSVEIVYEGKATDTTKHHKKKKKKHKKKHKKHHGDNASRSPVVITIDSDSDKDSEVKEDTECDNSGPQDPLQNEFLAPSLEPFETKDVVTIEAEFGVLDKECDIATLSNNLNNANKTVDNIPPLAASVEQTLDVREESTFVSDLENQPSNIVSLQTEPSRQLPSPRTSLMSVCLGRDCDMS
UniProt O14787: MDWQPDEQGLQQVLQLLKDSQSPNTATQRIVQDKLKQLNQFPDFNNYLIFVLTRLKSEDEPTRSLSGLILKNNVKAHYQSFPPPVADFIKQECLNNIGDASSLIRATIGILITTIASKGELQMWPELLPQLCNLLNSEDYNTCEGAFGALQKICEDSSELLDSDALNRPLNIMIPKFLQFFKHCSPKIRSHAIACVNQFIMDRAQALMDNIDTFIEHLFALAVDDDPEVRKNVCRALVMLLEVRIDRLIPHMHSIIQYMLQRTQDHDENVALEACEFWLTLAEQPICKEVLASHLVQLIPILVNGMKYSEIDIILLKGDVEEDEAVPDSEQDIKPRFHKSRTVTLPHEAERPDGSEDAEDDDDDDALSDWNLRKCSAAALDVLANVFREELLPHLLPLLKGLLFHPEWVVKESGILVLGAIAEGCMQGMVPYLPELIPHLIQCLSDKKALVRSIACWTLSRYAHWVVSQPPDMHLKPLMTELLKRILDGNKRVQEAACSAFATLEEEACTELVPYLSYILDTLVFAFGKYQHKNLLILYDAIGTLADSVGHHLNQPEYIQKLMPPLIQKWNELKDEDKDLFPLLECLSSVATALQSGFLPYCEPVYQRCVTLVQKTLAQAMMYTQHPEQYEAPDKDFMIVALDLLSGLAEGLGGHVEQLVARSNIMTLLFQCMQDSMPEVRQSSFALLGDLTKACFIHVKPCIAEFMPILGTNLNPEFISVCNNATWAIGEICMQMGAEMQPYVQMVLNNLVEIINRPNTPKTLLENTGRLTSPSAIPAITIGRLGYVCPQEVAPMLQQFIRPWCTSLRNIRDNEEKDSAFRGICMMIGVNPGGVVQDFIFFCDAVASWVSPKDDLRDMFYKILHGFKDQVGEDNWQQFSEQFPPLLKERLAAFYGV

Compound: Cc1cc(ccc1-c1ccccc1)C(=O)N1CCCN(CC1)C(=O)CCl [compound 10]
Assay: probe-labelled cysteine peptide fold change vs DMSO (competition) (log2 fold change); higher = less target engagement (more negative = stronger competition)
Conditions: THP-1, incubation time: 4 h
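Further: competitive profiling in live THP-1 cells: cysteine peptides tagged with an iodoacetamide desthiobiotin (IA-DTB) probe, intensity after compound treatment relative to DMSO-treated cells.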

| Target | probe-labelled cysteine peptide fold change (10 µM) | probe-labelled cysteine peptide fold change (50 µM) |
| --- | --- | --- |
| TMEM173_Q86WV6_206_LYILLPLDCGVPDNLSMADPNIR (UniProt Q86WV6) | -0.113 | -0.142 |
| TLN2_Q9Y4G6_289_NCGEMSEIEAK (UniProt Q9Y4G6) | -0.0796 | 0.0596 |
| TNPO1_Q92973_142_LCSLLDSEDYNTCEGAFGALQK (UniProt Q92973) | 0.128 | 0.0503 |
| TMX1_Q9H3N1_106_FIITALPTIYHCK (UniProt Q9H3N1) | -0.104 | -0.168 |
| TNS3_Q68CZ2_1381_HYPVNSVIFCALDPQDRK (UniProt Q68CZ2) | -0.0299 | -0.121 |
| TOPORS_Q9NS56_49_HRPSFLGCR (UniProt Q9NS56) | -0.298 | -0.592 |
| TNPO2_O14787_93_QECLNNIGDASSLIR (UniProt O14787) | 0.22 | 0.135 |
